Where “and” joins values, the source holds several entries; their conditions need not be identical. Equal entries are not always repeated. The list shows a part of the results. The main result of the screen is listed elsewhere. These columns were measured beside it and carry no call. Compounds called inactive in the main read-out are mostly missing here. Potencies come from curve fits of mixed quality, noted in brackets.

AC50 data for 35 molecules are collected here from PubChem BioAssay AID445 (National Center for Advancing Translational Sciences (NCATS), 2006).

The assay is described as follows: IkB Signaling. Particulars: ABC-DLBCL IkBa-CBG/CBR dual luciferase ratio (green luciferase fused to IkBa over red control in OCI-Ly3 lymphoma cells), 4 h. In short, it runs like this: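 Luminescence ratio of IκBα-fused green versus native red beetle luciferase in OCI-Ly3 cells, 4 h post-doxycycline with compound; red signal alone, scaled from basal (0%) to zero light (-100%), flagged nonspecific or cytotoxic effects.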
Setting [1] is: measured here: control luc red channel.
[2] abbreviates: measured here: IkB-luc green channel.

`Cc1cccc(-n2c(/C=C/c3c[nH]c4ccccc34)nc3ccccc3c2=O)c1`: the AC50 under setting [1] was 5.01 µM [falling, partial curve].

With `NS(=O)(=O)c1ccc(N=Cc2c(O)n(C3CCCCC3)c(=O)n(C3CCCCC3)c2=O)cc1`, the AC50 under setting [1] was 10 µM [falling, partial curve].

Consider `CSc1ccc(CN2CCN(C(=O)COc3cccc(C)c3)CC2)cc1`, for which the AC50 under setting [1] is 39.8 µM [falling, partial curve]. The same measure, in the same setting: under `O=C1NC(=S)NC(=O)C1=Cc1cccc2cc3ccccc3cc12` stands 3.98 µM [falling, single point]. Same read-out and setting: under `CN(C)P1(N(C)C)=Nc2c(c(N)nn2C)C(c2ccccc2)=N1` stands 39.8 µM [falling, partial curve]. Consider `[Cd+2].[Cl-].[Cl-]`, for which, under setting [2], the AC50 was 0.794 µM [rising, full curve].

As for `C[C@@H]1O[C@H](O[C@@H]2C=C3CC[C@H]4[C@@H](CC[C@]5(C)[C@@H](c6ccc(=O)oc6)CC[C@]45O)[C@@]3(C)CC2)[C@@H](O)[C@H](O)[C@@H]1O`, the AC50 under setting [1] is 0.1 µM [falling, full curve]. On the same count and under the same terms, under `CCOc1ccc(CN(CCc2ccc3c(c2)OCO3)Cc2cc(OC)ccc2O)cc1` stands 15.8 µM [falling, single point]; under `Cc1cc(OCC(=O)N2CCN(CCc3ccncc3)CC2)ccc1Cl`, 15.8 µM [falling, partial curve]. As to `CSc1ccc(/C=C/c2nc3ccccc3c(=O)n2-c2cccc(Cl)c2C)cc1`, the AC50 under setting [1] was 25.1 µM [falling, partial curve]. The same measure, in the same setting: under `CCOC(=O)C(O)(c1ccc(NC(=O)c2ccco2)c(OC)c1)C(F)(F)F` (centres undefined) stands 12.6 µM [falling, partial curve]; under `Cc1cccc(C2=NCC(=O)N(CC(=O)NCc3ccco3)c3sc4c(c32)CCCC4)c1`, 20 µM [falling, partial curve]. Same read-out and setting: under `CC(C)[C@@]1(NC(=O)[C@@H]2C[C@H]3c4cccc5[nH]cc(c45)C[C@@H]3N(C)C2)O[C@@]2(O)[C@H]3CCCN3C(=O)[C@H](Cc3ccccc3)N2C1=O` stands 31.6 µM [falling, partial curve] and 20 µM [falling, partial curve, poor fit]; under `Oc1cc(Cl)c(Cl)c(Cl)c1Cl`, 3.98 µM [falling, full curve]; under `CC(C)Nc1ccc(Nc2ccccc2)cc1`, 12.6 µM [falling, full curve, poor fit]. As for `COc1ccc(OC)c(C(c2c(O)c3ccccc3oc2=O)c2c(C)n(C)n(-c3ccccc3)c2=O)c1` (centres undefined), the AC50 under setting [1] was 1.26 µM [falling, partial curve, poor fit]. Consider `C1=C(c2c[nH]c3ccccc23)CCNC1`, for which the half-maximal activity concentration (AC50) under setting [1] was 10 µM [falling, partial curve].

On to `O=S1(=O)N(Cc2ccccc2)CCCN1Cc1ccc(F)cc1Cl`, for which the AC50 under setting [1] was 39.8 µM [falling, single point]. Take `Cc1c(C(=O)c2cccc3ccccc23)c2cccc3c2n1[C@H](CN1CCOCC1)CO3`: the AC50 under setting [2] is 3.98 µM [rising, full curve, poor fit]. Turning to `CC[C@@H]1CN2CCc3cc(OC)c(OC)cc3[C@H]2C[C@@H]1C[C@@H]1NCCc2cc(O)c(OC)cc21`, the concentration at half-maximal activity (AC50) runs as follows: under setting [2], 0.0631 µM [falling, full curve, poor fit]; under setting [1], 0.0501 µM [falling, full curve]. Consider `CC[C@@]1(O)C(=O)OCc2c1cc1n(c2=O)Cc2cc3ccccc3nc2-1`, for which the AC50 is, setting by setting: under setting [2], 0.794 µM [falling, full curve]; under setting [1], 251 nM [falling, full curve] and 126 nM [falling, full curve] and 31.6 nM [falling, full curve].

With `CN1CCN(C(=O)O[C@@H]2c3nccnc3C(=O)N2c2ccc(Cl)cn2)CC1`, the AC50 under setting [2] was 39.8 µM [rising, single point]. Regarding `CCN(CC)Cc1c[nH]c2ccccc12`, the AC50 under setting [1] is 3.98 µM [falling, full curve].

As for `C[C@]1(C(=O)O)[C@@H]2CC[C@@H](O2)[C@@]1(C)C(=O)O`, the concentration at half-maximal activity (AC50) under setting [2] was 31.6 µM [rising, partial curve] and the half-maximal activity concentration (AC50) under setting [1] is 12.6 µM [rising, partial curve]. Turning to `COC(=O)c1c(C)ccc2c(O)c3c(cc12)C(=O)c1c2c(cc(O)c1C3=O)[C@@]1(C)O[C@@](C)(O2)[C@@H](O)[C@H](N(C)C)[C@H]1O`, the AC50 under setting [1] was 3.16 µM [falling, partial curve]. On to `C[C@@]12CC[C@H]3[C@@H](CC[C@]4(O)C[C@H](O)CC[C@@]34C=O)[C@]1(O)CC[C@@H]2C1=CC(=O)OC1`, for which the AC50 under setting [1] is 2.51 µM [falling, full curve, poor fit].

On to `CC(=NCCCN1CCOCC1)c1c(O)n(-c2ccccc2C)c(=O)[nH]c1=O`, for which the AC50 under setting [1] is 3.16 µM [falling, full curve].

For the molecule `O=c1[nH]c(=O)n(C2CCCCC2)c(O)c1C1NCCc2ccccc21` (centres undefined), the AC50 under setting [1] was 12.6 µM [falling, partial curve]. For `CNc1ccc2oc(C[C@@H]3O[C@@]4(CC[C@H]3C)O[C@@H]([C@@H](C)C(=O)c3ccc[nH]3)[C@@H](C)C[C@H]4C)nc2c1C(=O)O`, the AC50 by setting is: under setting [2], 2 µM [rising, partial curve]; under setting [1], 12.6 µM [falling, full curve, poor fit]. Consider `O=C(Cn1ncc2c3ccccc3n(Cc3ccc(F)cc3)c2c1=O)N1CCC2(CC1)OCCO2`, for which the AC50 under setting [1] was 20 µM [falling, partial curve]. For the molecule `Cc1cccc2sc(NC(=O)c3cccn(Cc4ccccc4)c3=O)nc12`, under setting [1], the AC50 is 2.51 µM [falling, full curve]. With `Cc1cc(NC(=O)c2cccn(Cc3ccccc3)c2=O)no1`, under setting [1], the AC50 was 2 µM [falling, full curve]. As for `O=C(CN1C(=O)CN=C(c2ccccc2)c2ccccc21)Nc1cccc(C(F)(F)F)c1`, the AC50 under setting [1] was 25.1 µM [falling, partial curve]. For the molecule `Nc1c(C(=O)Nc2cccc(Br)c2)sc2nc3c(cc12)N1CCC3CC1`, the AC50 under setting [1] was 25.1 µM [falling, single point].

On to `CC[C@]1(O)C(=O)OCc2c1cc1n(c2=O)Cc2cc3ccccc3nc2-1`, for which the AC50 under setting [1] is 0.398 µM [falling, full curve].

By AC50 is commonly meant the concentration at which the activity in the assay is half-maximal.
